# Some of these results come from one statement about several compounds together. At least one structure is not confirmed: it was looked up by name or label, or the drawing left a doubt.
# Amino acid sequences for entries named in this document (tags omitted).
# UniProt P50406, whole entry: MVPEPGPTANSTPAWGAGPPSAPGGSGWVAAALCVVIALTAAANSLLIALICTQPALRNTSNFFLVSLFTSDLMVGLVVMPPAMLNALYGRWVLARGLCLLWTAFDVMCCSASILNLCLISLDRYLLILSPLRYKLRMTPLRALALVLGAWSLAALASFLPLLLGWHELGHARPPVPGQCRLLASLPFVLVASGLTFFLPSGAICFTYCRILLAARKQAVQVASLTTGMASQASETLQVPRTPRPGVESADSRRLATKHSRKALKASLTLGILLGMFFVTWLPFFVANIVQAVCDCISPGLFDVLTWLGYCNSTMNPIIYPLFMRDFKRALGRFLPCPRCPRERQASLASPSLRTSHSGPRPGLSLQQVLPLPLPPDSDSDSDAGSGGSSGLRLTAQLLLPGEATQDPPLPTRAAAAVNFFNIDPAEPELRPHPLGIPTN
# UniProt P34972, whole entry: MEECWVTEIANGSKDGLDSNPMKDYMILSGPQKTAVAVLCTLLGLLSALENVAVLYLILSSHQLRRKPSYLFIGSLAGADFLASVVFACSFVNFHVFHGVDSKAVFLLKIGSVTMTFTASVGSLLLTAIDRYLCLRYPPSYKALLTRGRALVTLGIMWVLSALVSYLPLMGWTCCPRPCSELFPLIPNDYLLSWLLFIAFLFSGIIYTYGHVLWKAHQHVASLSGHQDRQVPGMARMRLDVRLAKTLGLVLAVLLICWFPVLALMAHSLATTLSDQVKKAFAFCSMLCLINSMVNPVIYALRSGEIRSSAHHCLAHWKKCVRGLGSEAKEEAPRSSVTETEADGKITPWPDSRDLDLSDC
# How the values were obtained:
# [1] = molecular target: T1, human cloned 5-HT6 receptors (Homo sapiens, UniProt P50406); assay: Cyclase assay (cAMP production in membranes of HeLa 5HT6 cells, antagonism of 5-HT); type: biochemical; details: cyclase assay with 5-HT at 4xEC50
# T1 construct: expressed in transfected cells; host or cells: HeLa cells (membranes)
# Protocol: 0.5 μl of test compound in 100% dimethylsulfoxide (DMSO) was added to a white, solid 384 well assay plate (for dose response measurements the top of the concentration range is 7.5 μM final). 10 μl of washed membranes of HeLa 5HT6 cells (for preparation see WO 98/27081) in basic buffer (50 mM HEPES pH 7.4 (KOH), 1 mM MgCl2, 100 mM NaCl, 1 μl/ml 3-isobutyl-1-methylxanthine (IBMX) (Sigma-Aldrich)) was added to all wells followed by 10 μl 2×ATP buffer (100 μl/ml ATP and 1 μl/ml 3-Isobutyl-1-methylxanthine (IBMX) (Sigma-Aldrich)) with 5-HT (at a concentration equivalent to a dose response of 4×EC50). […]
# cAMP production was then measured using the DiscoveRx™ HitHunter™ chemiluminescence cAMP assay kit (DiscoveRx Corporation, 42501 Albrae Street, Fremont, Calif. 94538; Product Code: 90-0004L) or any other suitable cAMP measurement assay.
# IC50 values were estimated from arbitrary designated unit (ADU) measurements from a Perkin Elmer Viewlux instrument using a four parameter logistic curve fit within EXCEL (Bowen, W. P. and Jerman, J. C. (1995), Nonlinear regression using spreadsheets. Trends in Pharmacol. Sci., 16, 413-417). Functional Ki values were calculated using the method of Cheng, Y. C. and Prussof, W. H. (Biochemical Pharmacol (1973) 22 3099-3108). pIC50 and fpKi are the negative log 10 of the molar IC50 and functional Ki respectively.
# [2] = molecular target: T2, human cannabinoid CB2 receptor (Homo sapiens, UniProt P34972); assay: Cannabinoid CB2 receptor agonist activity in yeast cells expressing the human CB2 receptor (FDGlu fluorescence); type: cell-based; details: 24 hours at 30° C.
# T2 construct: expressed in transfected cells; host or cells: Saccharomyces cerevisiae strain MMY23
# From the text: Yeast (Saccharomyces cerevisiae) cells expressing the human cannabinoid CB2 receptor were generated by integration of an expression cassette into the ura3 chromosomal locus of yeast strain MMY23. This cassette consisted of DNA sequence encoding the human CB2 receptor flanked by the yeast GPD promoter to the 5′ end of CB2 and a yeast transcriptional terminator sequence to the 3′ end of CB2. MMY23 expresses a yeast/mammalian chimeric G-protein alpha subunit in which the C-terminal 5 amino acids of Gpa1 are replaced with the C-terminal 5 amino acids of human Gαi1/23 (as described in Brown et al. (2000), Yeast 16:11-22). […]
# Agonists were prepared as 10 mM solutions in DMSO. […] After incubation at 30° C. for 24 hours, fluorescence resulting from degradation of FDGlu to fluorescein due to exoglucanase, an endogenous yeast enzyme produced during agonist-stimulated cell growth, was determined using a fluorescence microtitre plate reader (Tecan Spectrofluor or LJL Analyst excitation wavelength: 485 nm; emission wavelength: 535 nm). Fluorescence was plotted against compound concentration and iteratively curve fitted using a four parameter fit to generate a concentration effect value.
# Efficacy (Emax) was calculated from the equation […]
smiles,measurement,setting,value
"O=S(=O)(c1ccccc1)c1cnc2c(CN3CCCCC3)cccc2c1 [Example 2, 3-(Phenylsulfonyl)-8-(1-piperidinylmethyl)quinoline]","fpKi (functional pKi, antagonist potency)",[1],> 7.0
same,pEC50 at the CB2 receptor (agonist activity),[2],> 6

# — patent US20090012056A1, “Quinoline Compounds Capable of Binding the Cb2 and/or the 5-Ht6 Receptor” (GLAXO GROUP LIMITED, priority 2005, published 2009)
